Assay results reported in paper PMC5110553.
These are yes or no findings as the source states them, for the method shown. Binding seen in cells or lysates may run through a third protein. Some binding calls cover weakened binding; strength is not graded here.

By UniProt entry, the sequences of proteins in these tests, tags left out.
UniProt Q2YLD2: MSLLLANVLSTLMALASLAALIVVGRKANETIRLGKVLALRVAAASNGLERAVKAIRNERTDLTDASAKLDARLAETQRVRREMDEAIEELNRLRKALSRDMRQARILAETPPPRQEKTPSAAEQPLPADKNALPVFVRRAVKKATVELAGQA
UniProt P06733: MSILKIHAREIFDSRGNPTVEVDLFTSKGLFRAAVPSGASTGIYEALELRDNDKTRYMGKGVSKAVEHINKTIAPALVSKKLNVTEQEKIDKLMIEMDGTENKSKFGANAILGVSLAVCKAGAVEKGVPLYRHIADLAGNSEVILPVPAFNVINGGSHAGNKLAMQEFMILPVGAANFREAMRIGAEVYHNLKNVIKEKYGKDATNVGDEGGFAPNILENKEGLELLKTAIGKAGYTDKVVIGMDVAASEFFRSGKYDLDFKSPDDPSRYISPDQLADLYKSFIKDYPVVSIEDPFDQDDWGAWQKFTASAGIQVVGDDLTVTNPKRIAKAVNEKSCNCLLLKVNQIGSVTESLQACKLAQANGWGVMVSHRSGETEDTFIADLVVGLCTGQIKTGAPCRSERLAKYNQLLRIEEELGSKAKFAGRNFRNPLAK

Assays:
[1] = target: His_BPE123 (Brucella abortus 2308) (UniProt Q2YLD2); test: pull-down; only the target purified
[2] = target: human alpha-enolase (ENO-1) (human) (UniProt P06733); test: co-IP

| Substance | binding [1] | binding [2] |
| --- | --- | --- |
| human alpha-enolase (ENO-1) (from UniProt P06733 1-434) (enzyme) | binds |  |
| Myc_BPE123 (from UniProt Q2YLD2 1-153) |  | binds |
